Assay results reported in PubChem BioAssay AID540256 (National Center for Advancing Translational Sciences (NCATS), 2011).
In all, about 300,000 compounds went through this assay and about 3,700 (1.2%) were called active. The inconclusive results got no clear call from the source; some entries with a clear call stand among them for comparison. Calls follow the shape of the full dose curve; tested in HEK293 cells. Potencies of inconclusive entries are doubtful fits and often do not repeat.
Potency is read from the fitted curve at half-maximal effect.

Test: qHTS for Inhibitors of binding or entry into cells for Lassa Virus; also: nearly all actives have a fitted effect of over 50% in size
Details: Lassa virus pseudotype entry inhibition, cell reporter; series mostly up to 37.9 µM
For `CCOc1cc(/C=N/NS(=O)(=O)c2ccc(OC)cc2)ccc1OCCN1CCOCC1`, the Potency was inconclusive: 1.41 µM [activator, partial curve, poor fit]. In the case of `COc1ccc(C(NC(=O)C(C)C)c2ccc3cccnc3c2O)cc1` (stereo not given), the Potency is reported as active: 2.51 µM. In the case of `COc1cc2c(cc1OC)C(COc1ccccc1OC)N(C(=O)COc1ccc(Cl)cc1)CC2` (stereo not given), the Potency is reported as inconclusive: 1 µM [inhibitor, partial curve, poor fit]. For `Cc1ccc(CCNC(=O)c2ccc3c(c2)nc2n3CCC(C)C2)cc1` (stereo not given), the Potency was inconclusive: 1.58 µM [inhibitor, partial curve, poor fit]. In the case of `O=C(C1CCN(c2ncnc3c2nc2n3CCCCC2)CC1)N1CCN(c2cccc(Cl)c2)CC1`, the Potency is reported as “inactive”. With `CCN(CC)C(=O)CSc1nnc(CNc2ccc(F)cc2)o1` the Potency was inconclusive: 29.1 µM [activator, partial curve, poor fit]. With `O=C(Nc1ccc(Br)c(C(F)(F)F)c1)c1ccccc1` the Potency was inconclusive: 35.5 µM [inhibitor, single point]. In the case of `CCOC(=O)c1c(NC(=O)CSc2nc3ccccc3o2)sc(C)c1C`, the Potency is reported as inconclusive: 0.0052 µM [activator, full curve, poor fit]. With `CCN1CCC(CC(=O)Nc2n[nH]c3nc(-c4cccs4)c(Br)cc23)CC1` the Potency was inconclusive: 35.3 µM [inhibitor, single point]. With `Cc1ccc2oc(-c3cccc(NC(=O)c4cc(-n5cnnc5)ccc4Cl)c3)nc2c1` the Potency was inconclusive: 29.1 µM [inhibitor, single point]. With `Cc1nn(C)cc1/C=N\NC(=O)c1ccc(Cn2cc(Cl)cn2)cc1` the Potency was inconclusive: 17.8 µM [activator, single point]. With `Cc1cccc(C)c1OC(=O)CN(c1ccc(Cl)cc1)S(C)(=O)=O` the Potency was inconclusive: 0.0058 µM [inhibitor, full curve, poor fit]. With `O=C(NCc1ccc(Cl)cc1)c1ccc2c(=O)n(CC3CCCO3)c(=S)[nH]c2c1` (stereo not given) the Potency was inconclusive: 1.26 µM [inhibitor, single point]. For `CCc1ccccc1N(CC(=O)NCc1ccc(OC)cc1)C(=O)CCC(=O)Nc1ccccn1`, the Potency was inconclusive: 14.1 µM [inhibitor, partial curve, poor fit]. With `Cc1ccc(N(CC(=O)Nc2cccc(F)c2)S(=O)(=O)c2cccs2)cc1` the Potency was “inactive”. With `COCCCn1c(=O)c2sccc2n2c(CCCC(=O)NCc3ccc(OC)cc3)nnc12` the Potency was “inactive”. For `O=C(Nc1cc(NC(=O)c2ccccc2F)ccc1Cl)c1ccccc1`, the Potency was “inactive”. For `CC1CCN(C(=O)CCc2nnc3ccc(NCc4ccco4)nn23)CC1`, the Potency was “inactive”. For `O=C(NCCc1ccccc1)c1ccc2c(c1)N(Cc1c(F)cccc1Cl)C(=O)CS2`, the Potency was inconclusive: 4.47 µM [inhibitor, partial curve]. In the case of `Cc1ccc2nc(SCC(=O)N3CCN(c4ccccc4)CC3)[nH]c2c1`, the Potency is reported as inconclusive: 35.5 µM [inhibitor, single point]. For `CCCn1nc(C(=O)Nc2cccc(C(=O)OC)c2)c2ccccc2c1=O`, the Potency was inconclusive: 13 µM [inhibitor, partial curve]. With `COC(=O)c1ccc(NC(=S)NC2CCCCC2C)cc1` (stereo not given) the Potency was inconclusive: 35.5 µM [inhibitor, single point]. In the case of `COc1ccc(OC)c(NC(=O)Nc2cc(NC(=O)Nc3cc(OC)ccc3OC)c(C)nc2C)c1`, the Potency is reported as inconclusive: 3.66 µM [inhibitor, partial curve, poor fit]. For `Cc1ccc(-n2ccc(=O)c(-c3ccnc(SCc4cccc(Cl)c4)n3)n2)cc1`, the Potency was inconclusive: 15.8 µM [inhibitor, single point]. In the case of `S=C(NN=Cc1ccc2c(c1)OCO2)NN=Cc1ccc2c(c1)OCO2`, the Potency is reported as inconclusive: 35.5 µM [inhibitor, single point]. With `Cc1ccsc1C(=O)N1CCCC(CO)(Cc2ccccc2)C1` (stereo not given) the Potency was inconclusive: 8.91 µM [inhibitor, partial curve, poor fit]. For `Cc1ccc2nc(N(CCCN(C)C)C(=O)c3ccc(S(=O)(=O)N4CCc5ccccc5C4)cc3)sc2c1`, the Potency was inconclusive: 35.5 µM [inhibitor, single point]. With `CCCOc1cccc(C2C(C(=O)c3ccco3)=C(O)C(=O)N2CCN(CC)CC)c1` (stereo not given) the Potency was “inactive”. With `COc1ccc(COc2cc(-c3cccc(OC)c3)nc3ccc(NC(=O)c4ccc(Cl)cc4)cc23)cc1` the Potency was inconclusive: 20.6 µM [inhibitor, single point]. In the case of `COc1ccc(-c2cc(C(=O)N/N=C(\C)c3cccnc3)c3ccccc3n2)cc1`, the Potency is reported as “inactive”. In the case of `O=C(C1CC1)N1CCc2cc(S(=O)(=O)NCC3COc4ccccc4O3)ccc21` (stereo not given), the Potency is reported as inconclusive: 29.1 µM [inhibitor, single point]. With `Cc1ccc(N(CC(=O)N2CCN(c3ccccc3F)CC2)S(=O)(=O)c2c(C)noc2C)cc1` the Potency was inconclusive: 0.562 µM [inhibitor, full curve, poor fit]. With `CC(=O)c1ccc(NC(=O)CSC(C)C)cc1` the Potency was “inactive”. For `O=C(c1ccc(S(=O)(=O)NCc2ccco2)cc1)N1CCN(Cc2ccccc2)CC1`, the Potency was inconclusive: 10 µM [inhibitor, partial curve, poor fit]. In the case of `Cc1nc(-c2cccc(NC(=O)Nc3ccc([N+](=O)[O-])cc3)c2)no1`, the Potency is reported as inconclusive: 22.4 µM [inhibitor, single point]. For `Cc1cc(C)nc(SCc2nnc(SCC(=O)Nc3ccccc3C)n2Cc2ccco2)n1`, the Potency was inconclusive: 2.91 µM [activator, partial curve, poor fit]. In the case of `O=C1OCc2cc(-n3cccc3)ccc21`, the Potency is reported as “inactive”. For `CCN(CC)C(=O)c1ccc(NC(=O)c2cn(-c3ccccc3)nc2-c2ccc(OC)cc2)cc1`, the Potency was inconclusive: 17.8 µM [inhibitor, partial curve]. For `COC(=O)c1ccccc1NC(=O)c1ncoc1-c1ccco1`, the Potency was “inactive”. In the case of `Cc1ccc(OCCCC(=O)Nc2nccs2)cc1`, the Potency is reported as “inactive”. For `COCCN(C(=O)COC(=O)Cc1ccc(Cl)cc1Cl)c1c(N)n(Cc2ccccc2)c(=O)[nH]c1=O`, the Potency was “inactive”. For `CC1=CC(=C2C(=O)NC(=O)NC2=O)C=C(C(F)(F)F)N1Cc1ccccc1`, the Potency was inconclusive: 7.94 µM [inhibitor, partial curve, poor fit]. In the case of `COCCCNC(=O)CCC(=O)N1Cc2cccc(OC)c2Oc2ncccc21`, the Potency is reported as inconclusive: 31.6 µM [activator, single point]. In the case of `O=S(=O)(c1ccccc1)c1ncc(C(F)(F)F)cc1O`, the Potency is reported as “inactive”. In the case of `O=C(CC1(O)C(=O)Nc2cc(Cl)cc(Cl)c21)c1ccccc1O` (stereo not given), the Potency is reported as “inactive”. For `Cc1ccc2nc(N3CCN(Cc4nnnn4C4CCCC4)CC3)c(C#N)cc2c1`, the Potency was inconclusive: 29.1 µM [inhibitor, single point]. With `CC(Sc1nnc(NC2CCCCC2)s1)C(=O)Nc1ccc2c(c1)C(=O)c1ccccc1C2=O` (stereo not given) the Potency was inconclusive: 1.16 µM [activator, partial curve, poor fit]. In the case of `O=C(CCN1C(=O)c2ccccc2C1=O)NC(=S)Nc1ccccc1Cl`, the Potency is reported as inconclusive: 16.4 µM [inhibitor, single point]. For `COC(=O)c1ccc2c(=O)n(CCCCCC(=O)N3CCN(c4ccccc4)CC3)c(=O)[nH]c2c1`, the Potency was inconclusive: 9.2 µM [inhibitor, partial curve, poor fit]. With `CCCCN(C(=O)c1[nH]c(C)c(C(C)=O)c1C)c1c(N)n(CCCC)c(=O)[nH]c1=O` the Potency was “inactive”. With `COc1ccccc1N1CCN(c2ccc([N+](=O)[O-])cc2Cl)CC1` the Potency was inconclusive: 35.5 µM [inhibitor, single point]. For `O=C(c1cccs1)N1C[C@H](O)[C@H](n2cc(-c3ccc(F)cc3)nn2)C[C@@H]1c1ccc(Cl)cc1`, the Potency was inconclusive: 1.99 µM [inhibitor, partial curve, poor fit]. With `CCN(CC)CCC(=O)Nc1ccc2c(c1)N(C(=O)CN(CC)CC)c1ccccc1CC2` the Potency was inconclusive: 35.5 µM [inhibitor, single point]. For `N/C(Cc1ccc([N+](=O)[O-])cc1)=N\OC(=O)c1ccc([N+](=O)[O-])cc1`, the Potency was “inactive”. In the case of `Cc1ccc(-n2nnnc2SCC(=O)c2cc(C)n(-c3cc(C)on3)c2C)cc1`, the Potency is reported as active: 11.6 µM. With `CCC(CO)Nc1nc2ccc(Cl)cc2c2ccccc12` (stereo not given) the Potency was inconclusive: 35.5 µM [inhibitor, single point]. In the case of `O=C(C1CCCN(c2ncnc3c2nc2n3CCCCC2)C1)N1CCN(c2ccccc2F)CC1` (stereo not given), the Potency is reported as inconclusive: 31.6 µM [inhibitor, single point]. With `O=[N+]([O-])c1cc(F)c(N2CCCCC2)cc1N1CCOCC1` the Potency was “inactive”. With `CCN(C(=O)c1ccc(C)c(Br)c1)c1ccccc1` the Potency was inconclusive: 35.5 µM [inhibitor, single point]. With `Clc1ccc(Cl)c2sc(N3CCOCC3)nc12` the Potency was inconclusive: 18.3 µM [activator, partial curve, poor fit]. With `CC(C)c1nc(N2CCN(C(=O)c3ccco3)CC2)c(C#N)c2c1COC(C)(C)C2` the Potency was “inactive”. In the case of `CCOc1ccc(Oc2c(/C=N/NC(=O)COc3ccccc3OC)c(C)nn2-c2ccccc2)cc1`, the Potency is reported as inconclusive: 25.9 µM [inhibitor, partial curve, poor fit]. For `Cc1ccc(C(=O)Nc2cccc(OCc3cc(=O)n4c5c(sc4n3)CCCC5)c2)cc1`, the Potency was “inactive”. With `CC(COc1ccccc1)OC(=O)Nc1ccccc1` (stereo not given) the Potency was inconclusive: 10 µM [activator, partial curve, poor fit]. With `COc1ccc(NC(=S)NCCc2c[nH]c3ccccc23)c(OC)c1` the Potency was inconclusive: 14.6 µM [inhibitor, single point].
